Reference: article PMC9174988
These are yes or no findings as the source states them, for the method shown. In cells and extracts the contact can be indirect. A result given as binding can be weak or reduced; the word gives no strength. For some assays here: Tags and fused reporters may be left off the sequences shown.

Tests used:
[1] = target: T1, hCLN6 (AAV9-hCLN6 transgene) (human) (UniProt Q9NWW5); experiment: co-IP; hCLN6 (AAV9-hCLN6 representatives) immunoprecipitation; Western blot of partners; input ~3% of total protein loaded on IPs
T1 sequence: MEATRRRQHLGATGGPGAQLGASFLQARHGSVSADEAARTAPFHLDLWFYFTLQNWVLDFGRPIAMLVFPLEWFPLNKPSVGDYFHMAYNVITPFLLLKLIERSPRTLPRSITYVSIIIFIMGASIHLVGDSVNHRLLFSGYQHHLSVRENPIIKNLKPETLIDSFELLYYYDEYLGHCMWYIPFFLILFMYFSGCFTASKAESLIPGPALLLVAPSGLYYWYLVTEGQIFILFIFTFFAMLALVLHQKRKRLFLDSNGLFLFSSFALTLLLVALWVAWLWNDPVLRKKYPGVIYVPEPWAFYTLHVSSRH

[2] = target: T2, CLN3 (tagged CLN3 expression plasmid) (UniProt Q13286); experiment: co-IP; tagged CLN3 or CLN8 expression plasmids used for immunoprecipitation; Western blot of partners; input ~3% of total protein loaded on IPs
T2 sequence: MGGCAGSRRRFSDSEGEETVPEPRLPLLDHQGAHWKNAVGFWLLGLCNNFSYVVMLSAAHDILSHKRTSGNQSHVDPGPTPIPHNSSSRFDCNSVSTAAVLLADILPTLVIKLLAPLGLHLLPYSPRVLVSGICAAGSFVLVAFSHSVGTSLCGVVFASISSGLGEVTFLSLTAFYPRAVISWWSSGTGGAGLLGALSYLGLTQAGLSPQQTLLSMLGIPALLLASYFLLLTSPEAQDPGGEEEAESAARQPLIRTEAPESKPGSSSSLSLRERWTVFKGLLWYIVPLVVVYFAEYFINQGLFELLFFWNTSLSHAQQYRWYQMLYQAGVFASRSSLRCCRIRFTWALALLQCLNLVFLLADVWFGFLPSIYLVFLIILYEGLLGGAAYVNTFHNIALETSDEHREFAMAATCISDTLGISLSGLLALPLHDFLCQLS

binding [1] | Substance | binding [2]
binds | mammalian uncoordinated-18 (mouse cortex) | –
– | mammalian uncoordinated-18 (in neuroblastoma cells) | binds
